Values of other authors, collected in patent EP2197279B1, “C10-SUBSTITUTED CAMPTOTHECIN ANALOGS” (BIONUMERIK PHARMACEUTICALS, INC., priority 2007, dated 2009).

Conditions: closed E-ring lactone form; drug dissolving in 1 mL of water; cited from earlier work

Compound: CC[C@@]1(O)C(=O)OCc2c1cc1n(c2=O)Cc2cc3ccccc3nc2-1 [CPT, (S)-4-Ethyl-4-hydroxy-1H-pyrano[3',4':6,7]indolizino[1,2-b]quinoline-3,14(4H,12H)-dione]
- solubility in water: approximately 0.1 µg
